PubChem BioAssay AID504764 | Drosophila RNAi Screening Center, 2011
In all, the deposit lists about 22,000 reagents; below is an unselected part of those with a known target gene and a result. In the full data, 403 (1.9%) were called active. 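Unnormalised raw counts per well; ratio z-scores behind the hit calls and whether each hit raises or lowers signal are not deposited.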 A number with no mark means an inactive call. No sequences are given here. Not given: the amount of reagent.

Test: 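Knock-downs that raise or lower a Notch target reporter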 (primary screen)
System: Drosophila Kc167 cells
Reagents: long dsRNA against Drosophila genes
Duration: about 5 days (4 days dsRNA, then 24 h after transfection)
Conditions: transfection of constitutively active membrane-tethered Notch lacking the extracellular domain, read 24 h later
Detection: 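Light from a Notch-responsive E(spl)m3 luciferase reporter under active Notch, with control-promoter and no-Notch reporter wells to normalise; raw counts from paired wells a and b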
Reading the numbers: induced reporter light, run 1, well a and induced reporter light, run 1, well b: higher = more light from the Notch target reporter with active Notch; control promoter light, run 1, well a and control promoter light, run 1, well b: higher = more light from the viral control promoter (cell number, transfection, viability); uninduced reporter light, run 1, well a: higher = more light from the Notch target reporter without active Notch
Call rule: 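Hit if the duplicate-averaged log2 ratio of induced to control-promoter light gives a plate-wise z beyond ±2, or induced to uninduced beyond ±1.8; weak-control or discordant-duplicate wells dropped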
Meaning of the calls: active = modifier hit (raised or lowered Notch signal); inactive = not a hit

predicted target	dsRNA	induced reporter light, run 1, well a	induced reporter light, run 1, well b	control promoter light, run 1, well a	control promoter light, run 1, well b	uninduced reporter light, run 1, well a
Elp6 (Elongator complex protein 6)	DRSC16571	1.21e5	1.20e5	87185	97155	8365
CG1246	DRSC08275	1.17e5	86955	2.02e5	1.19e5	6290
gny (garnysstan)	DRSC02810	2.41e5	2.62e5	2.12e5	2.29e5	20655
CG6431	DRSC02956	98070	1.28e5	64775	84560	15875
5-HT2B (5-hydroxytryptamine (serotonin) receptor 2B)	DRSC16360	79815	89470	59105	55380	5340
5-HT2B (5-hydroxytryptamine (serotonin) receptor 2B)	DRSC16362	73150	86005	75410	57630	4670
CG11626	DRSC14336	2.02e5	1.92e5	2.18e5	2.45e5	13980
Nurf-38 (Nucleosome remodeling factor - 38kD)	DRSC04629	1.32e5	1.28e5	1.45e5	1.69e5	10520
c11.1	DRSC18749	1.11e5	1.18e5	2.55e5	2.55e5	8930
CG3349	DRSC10359	1.63e5	1.72e5	2.08e5	1.40e5	6920
LSm7 (Like Sm 7)	DRSC02251	1.29e5	98610	1.15e5	1.43e5	7390
CG14683	DRSC17035	2.09e5	1.64e5	1.29e5	1.20e5	12760
Klp31E (Kinesin-like protein at 31E)	DRSC03354	2.23e5	2.34e5	2.01e5	1.87e5	15585
csw (corkscrew)	DRSC18756	1.13e5 (active)	1.23e5	1.03e5	1.15e5	8780
tbc (trabuco)	DRSC20540	17280	15100	15580	14265	6335
FBXO11 (F-box protein 11)	DRSC16497	99675	1.20e5	1.04e5	79740	7790
EndoB (Endophilin B)	DRSC07345	1.11e5	1.06e5	1.07e5	96700	8670
Cog6 (Component of oligomeric golgi complex 6)	DRSC06806	2.09e5	1.90e5	1.68e5	1.65e5	15355

Looked up above:
Under “induced reporter light, run 1, well b”, Nurf-38 (Nucleosome remodeling factor - 38kD) [DRSC04629] has 1.28e5
5-HT2B (5-hydroxytryptamine (serotonin) receptor 2B) [DRSC16360], induced reporter light, run 1, well a = 79815
LSm7 (Like Sm 7) [DRSC02251], induced reporter light, run 1, well a → 1.29e5
Under “control promoter light, run 1, well b”, CG3349 [DRSC10359] reads 1.40e5
Under “induced reporter light, run 1, well b”, Cog6 (Component of oligomeric golgi complex 6) [DRSC06806] shows 1.90e5
Value of Elp6 (Elongator complex protein 6) [DRSC16571] under “induced reporter light, run 1, well a”: 1.21e5

The listing continues:
predicted target	dsRNA	induced reporter light, run 1, well a	induced reporter light, run 1, well b	control promoter light, run 1, well a	control promoter light, run 1, well b	uninduced reporter light, run 1, well a
Cp7Fa (Chorion protein a at 7F)	DRSC18032	1.34e5	1.53e5	2.23e5	3.02e5	10645
Cp7Fa (Chorion protein a at 7F)	DRSC18033	1.19e5	1.60e5	2.75e5	2.69e5	10880
CG34273	DRSC13041	1.53e5	1.17e5	1.97e5	1.61e5	10370
Gs2 (Glutamine synthetase 2)	DRSC20250	1.01e5	1.07e5	1.73e5	1.44e5	7130
Hem (HEM-protein)	DRSC11865	1.09e5	81145	1.06e5	1.47e5	7970
sdt (stardust)	DRSC17555	47890	46655	30280	25485	4925
sdt (stardust)	DRSC17556	89460	55600	92090	1.64e5	4685
sdt (stardust)	DRSC17860	1.21e5	1.35e5	2.62e5	2.29e5	10520
sdt (stardust)	DRSC17861	1.53e5	1.63e5	3.06e5	2.00e5	12355
sdt (stardust)	DRSC18022	1.26e5	1.39e5	2.25e5	2.62e5	10135
sdt (stardust)	DRSC18025	18155	15505	18520	18590	4980
sdt (stardust)	DRSC18026	4675	5032	9180	10260	1965
sdt (stardust)	DRSC18027	39615	30380	43780	38600	5815
sdt (stardust)	DRSC18108	1.64e5	1.80e5	3.38e5	3.13e5	12115
CG30002	DRSC05182	51325	64840	81780	88885	3230
CG34015	DRSC19140	96700	87355	92420	1.04e5	7360
TyrRS (Tyrosyl-tRNA synthetase)	DRSC10430	46505	43565	35490	52295	3645
CG2017	DRSC12293	1.02e5	97580	75420	76165	9245
GlyT (Glycine transporter)	DRSC04512	1.65e5	1.38e5	1.71e5	1.54e5	9935
pip (pipe)	DRSC11382	1.29e5	1.00e5	1.04e5	79325	8765
CG9837	DRSC16573	64830	57405	45230	57075	4900
Ir64a (Ionotropic receptor 64a)	DRSC09759	77735	60255	93260	60815	6925
Ir64a (Ionotropic receptor 64a)	DRSC09760	2.62e5	2.56e5	2.71e5	3.37e5	19100
Graf (GTPase regulator associated with FAK)	DRSC20131	2.10e5	2.01e5	2.68e5	2.34e5	14455
CG14950 (retired record)	DRSC08409	1.06e5	1.26e5	1.76e5	1.77e5	7650
Liprin-beta	DRSC09795	1.02e5	95865	1.33e5	98050	5210
Takl2 (Tak1-like 2)	DRSC15650	1.86e5	1.78e5	1.83e5	1.99e5	12692
Fmo-1 (Flavin-containing monooxygenase 1)	DRSC04328	1.81e5	1.83e5	1.60e5	1.88e5	15750
CG12360 (retired record)	DRSC14505	2.23e5	2.00e5	2.02e5	2.15e5	15475
CG12992	DRSC19512	62300	60300	72200	88405	8210
CG6083	DRSC10580	1.44e5	1.32e5	2.43e5	1.87e5	7445
Nep6 (Neprilysin 6)	DRSC19877	1.21e5	1.24e5	1.95e5	1.90e5	10545
